Measured values reported in publication PMC12858405, “Ideal efficacy photoswitching for chromocontrol of TRPC4/5 channel functions in live tissues” (Nature Chemical Biology, 2026).

Tested on: Th+ neurons of Th-GCaMP6f (WT) mice
Assay: GCaMP6f Ca2+ imaging of Th+ neurons in arcuate nucleus brain slices with 355 nm photoswitching, Th-GCaMP6f (WT) mice
Conditions: after 355 nm pulse

SMILES	Hill coefficient of Ca2+ dose-response in Th+ neurons, WT
Cn1c(=O)n(CCCO)c(=O)c2c1nc(Oc1ccc(N=Nc3ccccc3)c(Cl)c1)n2Cc1ccc(Cl)cc1 [AzHC]	1.95
Cn1c(=O)n(CCCO)c(=O)c2c1nc(Oc1ccc(/N=N\c3ccccc3)c(Cl)c1)n2Cc1ccc(Cl)cc1 [Z*-AzHC]	1.95
